Results from PMC4947154.

Amino acid sequences for entries named in this document (tags omitted). A change or cut given only in a name is not applied to a line headed by its entry.
UniProt Q9NPF0: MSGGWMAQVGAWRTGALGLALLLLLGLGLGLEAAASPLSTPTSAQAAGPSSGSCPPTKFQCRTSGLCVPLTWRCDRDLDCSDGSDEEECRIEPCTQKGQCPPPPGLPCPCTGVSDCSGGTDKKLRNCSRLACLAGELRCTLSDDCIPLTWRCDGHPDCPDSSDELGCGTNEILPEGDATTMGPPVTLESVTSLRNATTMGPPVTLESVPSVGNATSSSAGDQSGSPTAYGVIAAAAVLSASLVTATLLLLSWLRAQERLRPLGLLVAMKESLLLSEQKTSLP

Experiments:
[1] = target: CD320ΔE88 (MBP cleaved), in complex with TC (human) (UniProt Q9NPF0); assay: crystal structure; co-crystals of the purified complex, sitting drop, 20 °C; both purified
[2] = target: CD320(Gly4Ser)4 (flexible linker mutant: EGF-like domain replaced by (Gly4Ser)4) (human) (UniProt Q9NPF0); assay: co-expression and co-purification; TC construct and His9-MBP-CD320 construct co-expressed and secreted from Sf21 cells, complex captured from the medium on Ni-NTA through the receptor's tag
[3] = target: CD320(Gly4Ser)4 (flexible linker mutant: EGF-like domain replaced by (Gly4Ser)4) (human) (UniProt Q9NPF0); assay: SEC; purified complexes, 0.5-1 mg/ml in 20 mM Tris pH 7.5, 0.5 mM CaCl2, 150 mM NaCl, G3000SWxl column at 4 °C, after heating for 10 min at selected temperatures (thermostability; also with 10 mM EGTA without Ca2+); SEC profiles of purified complexes; both purified
[4] = target: CD320ΔE88 (MBP cleaved), in complex with TC (human) (UniProt Q9NPF0); assay: as above

binding [1]: binds
binding [2]: binds
binding [3]: binds
binding [4]: binds
B1: human transcobalamin (holo-TC, cyanocobalamin-bound) (protein, UniProt P20062 19-427)
chain: EMCEIPEMDSHLVEKLGQHLLPWMDRLSLEHLNPSIYVGLRLSSLQAGTKEDLYLHSLKLGYQQCLLGSAFSEDDGDCQGKPSMGQLALYLLALRANCEFVRGHKGDRLVSQLKWFLEDEKRAIGHDHKGHPHTSYYQYGLGILALCLHQKRVHDSVVDKLLYAVEPFHQGHHSVDTAAMAGLAFTCLKRSNFNPGRRQRITMAIRTVQEEILKAQTPEGHFGNVYSTPLALQFLMTSPMRGAELGTACLKARVALLASLQDGAFQNALMISQLLPVLNHKTYIDLIFPDCLAPRVMLEPAAETIPQTQEIISVTLQVLSLLPPYRQSISVLAGSTVEDVLKKAHELGGFTYETQASLSGPYLTSVMGKAAGEREFWQLLRDPNTPLLQGIADYRPKDGETIELRLVSW

Results are given in words; binding and its absence hold for the method and conditions named. Binding calls can cover weak binding; strength is not graded here. For some of these results: Binding seen in cells or lysates may run through a third protein.
